Results reported in paper PMC12678531.

Amino acid sequences for entries named in this document (tags omitted). Residues count along the entry.
UniProt Q13472, 21-750: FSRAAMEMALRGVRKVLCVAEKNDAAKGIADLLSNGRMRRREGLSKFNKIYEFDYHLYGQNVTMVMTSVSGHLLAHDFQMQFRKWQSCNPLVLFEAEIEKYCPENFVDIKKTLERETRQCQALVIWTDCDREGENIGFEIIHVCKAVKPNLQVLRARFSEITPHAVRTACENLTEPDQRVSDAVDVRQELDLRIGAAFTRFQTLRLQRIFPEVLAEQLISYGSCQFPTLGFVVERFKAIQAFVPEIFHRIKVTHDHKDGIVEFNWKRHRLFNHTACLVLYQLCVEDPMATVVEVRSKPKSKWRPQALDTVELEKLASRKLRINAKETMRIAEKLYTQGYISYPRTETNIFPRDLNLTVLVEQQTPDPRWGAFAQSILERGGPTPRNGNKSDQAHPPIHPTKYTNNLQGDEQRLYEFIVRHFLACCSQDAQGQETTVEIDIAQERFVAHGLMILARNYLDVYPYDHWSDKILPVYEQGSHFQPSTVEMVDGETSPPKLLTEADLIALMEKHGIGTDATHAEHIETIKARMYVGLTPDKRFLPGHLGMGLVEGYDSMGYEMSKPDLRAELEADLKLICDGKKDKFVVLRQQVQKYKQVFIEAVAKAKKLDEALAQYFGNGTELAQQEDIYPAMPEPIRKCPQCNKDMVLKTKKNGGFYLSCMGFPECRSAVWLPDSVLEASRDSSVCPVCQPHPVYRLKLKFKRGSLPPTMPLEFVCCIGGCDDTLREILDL

Target: TOP3α (21-750) (Homo sapiens) (UniProt Q13472)
Assay: EMSA
Conditions: 300 pmol protein, 50 pmol DNA in 10 uL, longer DNA bound more efficiently, EMSA: Beyotime GS005 binding buffer, 37 C, 15 min, 6% PAGE in TBE at 4 C, recombinant protein, residues 21-750, protein details: C-terminal LE-6xHis, label: none for EMSA (GelRed stain)

Sequence: CCGAAACCAGACGAGCTACCTAAGAACAGC (double strand) [DNA2 (30 bp)]
- binding result: binds more weakly

A weaker result is weaker than the reference pair of the same experiment.
